Drawing on article PMC11665855, this text covers binding for two substances.

Sequences of proteins named here, by UniProt entry; tags and fusion partners are left off.
UniProt Q61038: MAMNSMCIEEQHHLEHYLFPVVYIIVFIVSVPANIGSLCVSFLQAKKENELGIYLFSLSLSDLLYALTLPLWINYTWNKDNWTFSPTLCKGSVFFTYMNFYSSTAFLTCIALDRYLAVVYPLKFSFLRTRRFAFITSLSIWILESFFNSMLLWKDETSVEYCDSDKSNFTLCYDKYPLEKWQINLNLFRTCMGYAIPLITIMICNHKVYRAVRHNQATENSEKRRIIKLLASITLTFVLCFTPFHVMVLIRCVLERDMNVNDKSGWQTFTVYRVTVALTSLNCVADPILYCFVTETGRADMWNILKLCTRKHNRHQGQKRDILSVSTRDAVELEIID
UniProt P49407: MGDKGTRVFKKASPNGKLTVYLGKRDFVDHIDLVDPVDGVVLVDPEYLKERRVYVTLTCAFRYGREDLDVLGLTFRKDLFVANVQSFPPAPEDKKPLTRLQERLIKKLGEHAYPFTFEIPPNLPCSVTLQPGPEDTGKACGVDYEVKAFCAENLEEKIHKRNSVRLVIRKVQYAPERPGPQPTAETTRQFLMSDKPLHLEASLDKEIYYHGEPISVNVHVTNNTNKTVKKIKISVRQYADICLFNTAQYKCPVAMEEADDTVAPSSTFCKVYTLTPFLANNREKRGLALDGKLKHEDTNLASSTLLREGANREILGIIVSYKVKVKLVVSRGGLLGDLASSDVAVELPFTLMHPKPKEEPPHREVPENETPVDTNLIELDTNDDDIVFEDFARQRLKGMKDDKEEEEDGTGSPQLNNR
UniProt P32121: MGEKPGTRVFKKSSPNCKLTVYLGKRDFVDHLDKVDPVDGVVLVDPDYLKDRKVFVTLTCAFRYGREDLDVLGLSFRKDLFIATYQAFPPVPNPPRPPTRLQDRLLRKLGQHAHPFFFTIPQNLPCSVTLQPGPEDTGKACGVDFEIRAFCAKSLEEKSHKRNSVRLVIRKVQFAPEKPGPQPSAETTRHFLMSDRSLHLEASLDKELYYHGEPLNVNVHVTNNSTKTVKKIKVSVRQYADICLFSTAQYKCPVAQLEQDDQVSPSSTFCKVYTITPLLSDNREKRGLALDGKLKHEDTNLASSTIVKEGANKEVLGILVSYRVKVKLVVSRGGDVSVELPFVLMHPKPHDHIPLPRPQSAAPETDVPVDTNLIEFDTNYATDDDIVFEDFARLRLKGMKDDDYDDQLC

No constants are given. Whether binding was seen depends on the method and setting. In cells and extracts the contact can be indirect. Some binding calls cover weakened binding; strength is not graded here.

Assay [1] has as its target mGPR65-RLuc8 (mouse GPR65 tagged with luciferase) (mouse) (UniProt Q61038). The assay can be described thus: FRET or BRET; BRET between mGPR65-RLuc8 and YFP tagged β-arrestin in transiently transfected Flp-In-CHO cells; psychosine treatment. For orientation: Bioluminescence resonance energy transfer reports proximity on the nanometre scale.
Assay [2] shares this target. The assay can be described thus: FRET or BRET; BRET between mGPR65-RLuc8 and YFP tagged β-arrestin in transiently transfected Flp-In-CHO cells; 15 min of exposure to protons or BTB.

Consider “β-arrestin 1-YFP (from UniProt P49407 1-418)”, for which the figures for the binding result in assay [1] and in assay [2] were “no binding (condition: with psychosine as the agonist)” and “binds”, respectively.
Take “β-arrestin 2 (YFP tagged) (from UniProt P32121 1-409)”: the binding entry in assay [1] is “no binding (condition: with psychosine as the agonist)”; in assay [2] it was “binds”.
